About 13,000 (3.2%) of roughly 400,000 compounds were called active. This list was built around the results that the source calls inconclusive (neither active nor inactive); the mix of calls is not that of the screen. Calls follow the shape of the dose curve; as a rule, active = well fitted cell-killing curve with a large enough effect; inconclusive = small, poorly fitted or top-dose-only effect, or effect the other way; inactive = flat fitted curve, though single readings scatter. Potencies of inconclusive entries are doubtful fits and often do not repeat.
Test: qHTS assay for MDR1-selective chemotherapeutics: Primary screen using the drug-selected MDR subline cells KB-V1; also: nearly all actives have a fitted effect of over 60% in size
Conditions: KB-V1 MDR cells viability, CellTiter-Glo, 72 h; activity change, negative = cytotoxicity: at 46.1 µM (top of the series)
How it was run: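 qHTS viability screen in drug-selected KB-V1 MDR cells: 72 h compound treatment at 37 degrees C, ATP luminescence end point.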
% is scaled to controls: 0 for no effect and ±100 for the full control effect; potency is read from the fitted curve at half-maximal effect.

Row | Structure (SMILES) | Potency | activity change, negative = cytotoxicity
1 | COc1ccc(S(=O)(=O)Nc2cc3c(C(=O)OC(C)C)c(C)oc3c3ccccc23)cc1 | active: 5.17 µM | 
2 | Cc1ccc2[nH]c(C(=O)N3CCN(C(c4ccccc4)c4ccccc4)CC3)cc2c1 | inconclusive: 6.51 µM [cytotoxic, partial curve] | 
3 | COC(=O)CCC(C(=O)CN1C(=O)c2ccccc2C1=O)N1C(=O)c2ccccc2C1=O (stereo not drawn) | inconclusive: 4.11 µM [rising, full curve] | 
4 | CCOc1ccc(C(=O)NCCN2CCOCC2)cc1 | inconclusive: 16.4 µM [rising, partial curve, poor fit] | 
5 | CC(C)C[C@H](NC(=O)c1nc[nH]c1C(=O)NCC(=O)OC(C)(C)C)C(=O)OC(C)(C)C |  | inactive: -0.805%
6 | O=c1c2ccccc2nc(SCc2nc(-c3ccccc3)no2)n1-c1ccc(F)cc1 | inconclusive: 8.2 µM [cytotoxic, partial curve] | 
7 | Fc1ccc(NC(=S)Nc2ccc3nccnc3c2)cc1 |  | inactive: -17.8%
8 | O=C(NC1=NCCS1)C1CCN(S(=O)(=O)c2cc([N+](=O)[O-])ccc2Cl)CC1 | inconclusive: 29.1 µM [cytotoxic, single point] | 
9 | CCOc1ccccc1N1CCN(CC(=O)N(C)CC(=O)Nc2ccccc2CC)CC1 |  | inactive: -26.8%
10 | Cc1cccc(Cn2cc(C(=O)Nc3cc(F)ccc3F)ccc2=O)c1 | inconclusive: 29.1 µM [cytotoxic, single point] | 
11 | Cc1sc2nc(-c3ccccc3F)oc(=O)c2c1C |  | inactive: 23.8%
12 | Nc1[nH]c(C(=O)c2ccc(Br)cc2)c(-c2ccc(Br)cc2)c1C(=O)NCCc1c[nH]c2ccccc12 | active: 20.6 µM | 
13 | CCOc1ccc2oc(C(=O)Nc3cc(C)ccn3)c(C)c2c1 | inconclusive: 20.6 µM [cytotoxic, single point] | 
14 | CC1=C(C(=O)Nc2ccc(C)cc2C)C(c2ccc(O)cc2)n2nc(SCC(=O)c3ccc(C)cc3)nc2N1 (stereo not drawn) | inconclusive: 29.1 µM [rising, single point] | 
15 | COc1ccc(C(C)NC(=O)C2CCCO2)cc1OC (stereo not drawn) | inconclusive: 14.6 µM [rising, partial curve, poor fit] | 
16 | Cn1c(Nc2ccc(Cl)cc2)cc(=O)n(C)c1=O | inconclusive: 16.4 µM [rising, single point] | 
17 | O=C1CN(C(=O)COC(=O)CCSc2ccccc2Cl)c2ccccc2N1 |  | inactive: 22.9%
18 | Cc1ccccc1NC(=O)c1ccc(-c2ccc(Cl)cc2Cl)o1 |  | inactive: 0.324%
19 | COc1ccc(C(=O)Nc2cccc(C(=O)NCc3ccco3)c2)cc1 |  | inactive: 0%
20 | COc1ccc(C(=O)Nc2ccc(S(=O)(=O)N(Cc3ccccc3)c3ccccc3)cc2)cc1 | active: 2.31 µM | 
21 | CCSc1nc2ccccc2n1C(=O)c1ccc(S(=O)(=O)N2CCCCCC2)cc1 | inconclusive: 0.366 µM [rising, full curve] | 
22 | COc1ccc(OC)c(CNC(=O)C2CCCCN2S(=O)(=O)c2ccc(F)cc2)c1 (stereo not drawn) | inconclusive: 29.1 µM [cytotoxic, single point] | 
23 | O=c1cc(CN2CCOCC2)c2c(ccc3ccccc32)o1 | inconclusive: 14.6 µM [cytotoxic, partial curve, poor fit] | 
24 | CCCNCC1C(Oc2ccc(Cl)cc2)C(=O)N1c1ccccc1C (stereo not drawn) |  | inactive: -2.55%
25 | O=C(N/N=C/c1ccccc1O)c1cccc2ccccc12 | inconclusive: 1.84 µM [cytotoxic, full curve, poor fit] | 

Row | Structure (SMILES) | Potency | activity change, negative = cytotoxicity
26 | CCOc1cc2c(cc1C(C)(C)C)NC(=O)CS2 | inconclusive: 20.6 µM [cytotoxic, partial curve, poor fit] | 
27 | O=C(O)C1CCN(C(=O)CCc2ccccc2)CC1 | inconclusive: 25.9 µM [rising, single point] | 
28 | CCN(CC)c1ccc(C(=O)NCc2ccc3c(c2)CCN3C(=O)c2ccc(F)cc2)cc1 | inconclusive: 29.1 µM [cytotoxic, single point] | 
29 | CC1(C)CNC(=O)c2sc(NC(=O)c3ccccc3Cl)nc2C1 |  | inactive: -13.5%
30 | CCn1c2ccccc2c2nnc(SCN3C(=O)c4ccccc4C3=O)nc21 | active: 8.2 µM | 
31 | COc1cccc(OCc2nc3ncc(Br)cc3[nH]2)c1 | active: 1.03 µM | 
32 | COc1cc(Cc2ccc(N)c(OC)c2)ccc1N |  | inactive: 0%
33 | O=C(NCc1ccccn1)C(=O)C1C(=O)Nc2ccccc21 (stereo not drawn) | inconclusive: 29.1 µM [rising, single point] | 
34 | COc1ccccc1-c1cc(C(=O)Nc2cc(OC)c(OC)c(OC)c2)no1 | inconclusive: 29.1 µM [cytotoxic, single point] | 
35 | C=CCn1cccc(C(=O)Nc2ccc(OC)c(Cl)c2)c1=O | inconclusive: 20.6 µM [cytotoxic, single point] | 
36 | CC1CCCN(C(=O)c2ccc(S(=O)(=O)Nc3ccccc3Cl)cc2)C1 (stereo not drawn) | inconclusive: 18.4 µM [cytotoxic, single point] | 
37 | NC(=O)c1cc2ccc(O)cc2oc1=Nc1ccccc1 |  | inactive: -1.37%
38 | CC(C)Nc1nc(Cl)nc(NCCOc2ccccc2)n1 | inconclusive: 29.1 µM [cytotoxic, single point] | 
39 | Cc1ccc(C(=O)N2CCN(c3cc4c(cc3[N+](=O)[O-])n(C)c(=O)n4C)CC2)cc1 |  | inactive: 0%
40 | COc1ccc(C2=NOC(C(=O)NCc3ccco3)C2)cc1 (stereo not drawn) | active: 7.31 µM | 
41 | CCCS(=O)(=O)c1c(S(=O)(=O)CCC)c2cc(CC)ccn2c1C(=O)c1ccc(Cl)cc1 |  | inactive: -22.6%
42 | Cc1cc(C)c(C(=O)OCC(=O)Nc2cccc(S(=O)(=O)N3CCCCC3)c2)c(C)c1 |  | inactive: -6.32%
43 | COc1ccc(NC(=O)CCCN2C(=O)CN(C)C2=O)cc1Cl | inconclusive: 29.1 µM [rising, single point] | 
44 | Cn1c2c(c(=O)n(C)c1=O)C(c1cccc(F)c1)C(C#N)=C(N)O2 (stereo not drawn) |  | inconclusive: 40%
45 | Cc1cs/c(=N\N=C\c2ccccc2)n1Cc1ccco1 | active: 16.4 µM | 
46 | N#C/C(=C\c1ccc([N+](=O)[O-])cc1)C(=O)NCCCn1ccnc1 |  | inactive: 9.84%
47 | Cc1ccc(C)c(Cn2c(=O)n(C)c(=O)c3sccc32)c1 | inconclusive: 29.1 µM [cytotoxic, single point] | 
48 | O=c1c(-c2ccco2)nc2ccccc2n1C(CCc1ccccc1)c1nc2ccccc2[nH]1 (stereo not drawn) |  | inactive: -16.8%
49 | O=C(Nc1ccc(Oc2ccccc2)cc1)c1csc([C@@H]2C[C@H](O)[C@@H](CO)O2)n1 |  | inactive: -19.5%
50 | O[Si](CCCN1CCCCC1)(c1ccc(F)cc1)C1CCCCC1 (stereo not drawn) | inconclusive: 9.2 µM [cytotoxic, partial curve, poor fit] | 

Row | Structure (SMILES) | Potency | activity change, negative = cytotoxicity
51 | O=C(CN1C(=O)COc2ccccc21)N(Cc1ccccc1)Cc1ccccn1 | active: 14.6 µM | 
52 | COCCN(CCOC)c1nc(-c2ccc(C)cc2)nc2ccccc12 | inconclusive: 1.64 µM [cytotoxic, full curve, poor fit] | 
53 | CCOc1ccc(S(=O)(=O)NC2CCCC2)cc1 |  | inactive: 0.967%
54 | CCn1c(SCC(=O)N2CCc3ccccc3C2)nc2c1c(=O)n(C)c(=O)n2C |  | inactive: 2.86%
55 | COc1ccccc1NC(=O)NC1(C(=O)N2CCN(C)CC2)CCCCC1 | inconclusive: 11.6 µM [rising, partial curve, poor fit] | 
56 | CC(C)NC(=O)CSc1nc2sccc2c(=O)n1-c1ccccc1 | inconclusive: 20.6 µM [cytotoxic, single point] | 
57 | Cc1noc(C)c1N=Nc1ccc(Br)cc1C(=O)O | inconclusive: 32.6 µM [rising, single point] | 
58 | CC(C)c1ccc(NC(=O)C2Cc3c(-c4ccco4)ccnc3O2)cc1 (stereo not drawn) | active: 20.6 µM | 
59 | O=C(/C=C/c1ccco1)N1CCN(S(=O)(=O)c2cccc([N+](=O)[O-])c2)CC1 | active: 23.1 µM | 
60 | O=C(NCC1CCCCC1)c1cc(S(=O)(=O)N2CCOCC2)ccc1F | inconclusive: 3.66 µM [cytotoxic, partial curve, poor fit] | 
61 | Cc1ccc(C)c(NC(=O)Cn2cc(C(=O)c3cccs3)c3ccccc32)c1 |  | inactive: -6.63%
62 | CN1CCN(c2nc3c(c(=O)[nH]c(=O)n3C)n2CCSc2nnnn2-c2ccccc2)CC1 |  | inactive: -3.23%
63 | CC(C)N1CCC(N2CCN(C3CCCCC3)CC2CCO)CC1 (stereo not drawn) | inconclusive: 32.6 µM [cytotoxic, single point] | 
64 | O=C(NNC(=O)c1ccccc1-c1ccccc1C(=O)O)c1cccc([N+](=O)[O-])c1 | inconclusive: 29.1 µM [rising, single point] | 
65 | CSc1nc(C)cc(OCC(=O)N2CCOCC2)n1 | inconclusive: 11.6 µM [rising, partial curve, poor fit] | 
66 | COc1ccccc1C(=O)N(CCC1CCCN1C)c1nc2ccccc2s1 (stereo not drawn) | inconclusive: 20.6 µM [cytotoxic, single point] | 
67 | CN(Cc1ccc(OC(F)F)cc1)C(=O)c1ccccc1Sc1ccccc1C#N | inconclusive: 3.66 µM [cytotoxic, partial curve, poor fit] | 
68 | COc1ccc(CCNC(=O)c2nc(-c3cccs3)no2)cc1OC | inconclusive: 16.4 µM [cytotoxic, partial curve] | 
69 | Cc1ccc(C(=O)COC(=O)c2cccc(NC(=O)c3ccc(Cl)cc3Cl)c2)cc1 | inconclusive: 18.4 µM [cytotoxic, single point] | 
70 | CC(C)N1CC(C(=O)Nc2ccccc2)CC1=O (stereo not drawn) | inconclusive: 0.58 µM [rising, full curve] | 
71 | C=CCn1c(=O)/c(=C/c2ccc(Cl)cc2)s/c1=C(/C#N)c1nnc2n1CCCCC2 |  | inactive: 7.59%
72 | Nc1c(C(=O)Nc2ccccc2F)sc2nc3c(cc12)CCCCCC3 | active: 6.51 µM | 
73 | Cc1ccc(NS(=O)(=O)c2cc(-c3cnc(C4CC4)o3)ccc2C)cc1Cl | inconclusive: 1.3 µM [cytotoxic, full curve, poor fit] | 
